Laboratory results: PubChem BioAssay AID1224826 (NIAID, 2016)
Purpose: 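Knock-downs that raise or lower Tnf reporter signal after endotoxin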 (primary screen). Cells: RAW264.7 G9 macrophages from mouse bearing reporters for p65 (GFP) and the Tnf promoter (mCherry). Knock-down reagent: siRNA pool against mouse genes, 100 nM. Time to read-out: 16 h of LPS stimulation, after 2 days of siRNA transfection. Treatment: bacterial lipopolysaccharide (Salmonella minnesota R595), 10 ng/ml. Detection: 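Imaged Tnf reporter mCherry in nuclei, minus background, normalised per plate to the median and expressed as robust z-scores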. Reading the numbers: Tnf reporter robust z-score: higher = stronger Tnf promoter reporter signal after LPS. Active means: 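Called active when robust z-score is at most -1.3, matching the median of the Tlr4 knock-down control, or over 3; control wells and wells with under 50 cells never active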. Meaning of the calls: active = Tnf reporter clearly lowered or raised; inactive = no clear change in Tnf reporter.
The deposit covers about 17,000 reagents; this is a random part of them. In the full data, about 1,110 (6.6%) got an active call. 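Active means lowered or raised reporter signal; replicate intensities are raw and not normalised per plate.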 Not all columns of the deposit are shown. Reagent sequences are not shown.

Silencing of Wiz (widely-interspaced zinc finger motifs) came out at: Tnf reporter robust z-score -0.9; fewer than 50 cells in well enough cells in well; inactive. Silencing of Dnmt3b (DNA methyltransferase 3B) gave: Tnf reporter robust z-score -0.27; fewer than 50 cells in well enough cells in well; inactive. With knock-down of Med27 (mediator complex subunit 27), the record shows Tnf reporter robust z-score -0.75; fewer than 50 cells in well enough cells in well; inactive. Itgb3bp (integrin beta 3 binding protein (beta3-endonexin)) scored Tnf reporter robust z-score 0.86; fewer than 50 cells in well enough cells in well; inactive. Against Or4c100 (olfactory receptor family 4 subfamily C member 100) the deposit lists Tnf reporter robust z-score -0.18; fewer than 50 cells in well enough cells in well; inactive. Plcd4 (phospholipase C, delta 4) gave Tnf reporter robust z-score 0.15; fewer than 50 cells in well enough cells in well; inactive.

After knock-down of P2rx3 (purinergic receptor P2X, ligand-gated ion channel, 3), the record shows Tnf reporter robust z-score 0.02; fewer than 50 cells in well enough cells in well; inactive. Silencing of Emc8 (ER membrane protein complex subunit 8) resulted in: Tnf reporter robust z-score 0.99; fewer than 50 cells in well enough cells in well; inactive. Hypk (huntingtin interacting protein K) gave fewer than 50 cells in well fewer than 50 cells per well; well left out of calls; inactive. Silencing of Gpr27 (G protein-coupled receptor 27) came out at: Tnf reporter robust z-score -0.54; fewer than 50 cells in well enough cells in well; inactive. Cdh5 (cadherin 5) showed Tnf reporter robust z-score 1.24; fewer than 50 cells in well enough cells in well; inactive. Vtn (vitronectin) showed Tnf reporter robust z-score -0.46; fewer than 50 cells in well enough cells in well; inactive.

Against Nfkb1 the deposit lists Tnf reporter robust z-score -1.12; fewer than 50 cells in well enough cells in well; inactive. Depletion of Zdhhc14 (zinc finger, DHHC domain containing 14) resulted in: Tnf reporter robust z-score -1.01; fewer than 50 cells in well enough cells in well; inactive. After knock-down of Pitpnc1 (phosphatidylinositol transfer protein, cytoplasmic 1), the screen gave Tnf reporter robust z-score -0.45; fewer than 50 cells in well enough cells in well; inactive. Depletion of Dmap1 (DNA methyltransferase 1-associated protein 1) came out at: Tnf reporter robust z-score 1.33; fewer than 50 cells in well enough cells in well; inactive. After knock-down of Trim67 (tripartite motif-containing 67), the record shows Tnf reporter robust z-score -0.65; fewer than 50 cells in well enough cells in well; inactive. For Rinl (Ras and Rab interactor-like), the entry reads Tnf reporter robust z-score 0.04; fewer than 50 cells in well enough cells in well; inactive.

Knock-down of Mtmr14 (myotubularin related protein 14) resulted in: Tnf reporter robust z-score -0.02; fewer than 50 cells in well enough cells in well; inactive. After knock-down of Psmb5 (proteasome (prosome, macropain) subunit, beta type 5), the screen gave Tnf reporter robust z-score 4.36; fewer than 50 cells in well enough cells in well; active. Against Exosc2 (exosome component 2), the values are Tnf reporter robust z-score 1.46; fewer than 50 cells in well enough cells in well; inactive.

Only “fewer than 50 cells in well”, for 2 of the entries above:
Hypk (huntingtin interacting protein K)	fewer than 50 cells per well; well left out of calls
Gpr27 (G protein-coupled receptor 27)	enough cells in well
